According to article PMC5216374:
Results are given in words; binding and its absence hold for the method and conditions named. In cells and extracts the contact can be indirect. Some results given as binding are weak or reduced against the parent protein; the word gives no strength. Where a sequence is shown, tags or fusion partners need not be part of it.

Chains of the proteins cited; added tags and fusions are not shown. Lines headed by an entry give the natural chain unless they say otherwise; changes in a name come on top. A line that says so, or that is headed by a name, gives the form on record, which may keep a tag or linker.
Isoform 2 of HCLS1-associated protein X-1 (O00165-2, form named): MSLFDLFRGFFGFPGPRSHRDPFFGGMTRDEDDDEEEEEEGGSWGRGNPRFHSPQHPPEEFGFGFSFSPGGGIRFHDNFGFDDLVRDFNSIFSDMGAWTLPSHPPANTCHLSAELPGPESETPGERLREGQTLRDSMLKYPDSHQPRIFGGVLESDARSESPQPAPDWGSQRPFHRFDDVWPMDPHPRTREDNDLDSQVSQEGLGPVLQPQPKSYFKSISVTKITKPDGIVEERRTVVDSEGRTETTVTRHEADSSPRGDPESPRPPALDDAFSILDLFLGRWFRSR

Tests used:
[1] = target: T1, full length TRIM14 ORF tagged at the C-terminus with 3xFLAG (human) (UniProt Q14142); assay: co-IP; HEK293T whole-cell extracts, FLAG-TRIM14 immunoprecipitated with anti-FLAG antibody, endogenous partners detected by blot; empty FLAG vector as control
T1 sequence: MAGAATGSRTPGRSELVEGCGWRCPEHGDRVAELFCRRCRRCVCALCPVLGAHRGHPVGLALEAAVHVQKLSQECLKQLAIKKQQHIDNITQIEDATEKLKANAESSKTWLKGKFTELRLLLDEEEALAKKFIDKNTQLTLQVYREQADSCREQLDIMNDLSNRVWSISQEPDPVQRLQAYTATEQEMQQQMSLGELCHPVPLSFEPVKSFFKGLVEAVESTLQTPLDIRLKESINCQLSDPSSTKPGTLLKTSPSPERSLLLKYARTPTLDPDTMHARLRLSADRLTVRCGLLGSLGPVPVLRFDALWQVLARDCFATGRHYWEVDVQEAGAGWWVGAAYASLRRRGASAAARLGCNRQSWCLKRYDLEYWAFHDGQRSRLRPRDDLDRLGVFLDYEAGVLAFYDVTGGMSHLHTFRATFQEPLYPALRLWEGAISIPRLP

[2] = target: T2, FLAG-TRIM14 ectopically expressed in H1395 cells (human) (UniProt Q14142); assay: co-IP; H1395 cells with ectopically expressed FLAG-TRIM14; endogenous p62 detected by blot
T2 sequence: T1 sequence

binding [1]	binding [2]	Substance
binds	–	Isoform 2 of HCLS1-associated protein X-1 (from UniProt O00165-2 1-287)
binds	–	Sequestosome-1 p62 (from UniProt Q13501 1-440)
–	binds	endogenous p62 of H1395 cells (from UniProt Q13501 1-440)
